# From publication PMC3494705
# Experiments:
# [1] = biological target: serine proteinase CLIPB8; assay: SDS-stable complex formation (SDS-PAGE and immunoblot); Figure S3: serpin incubated with Factor Xa-activated proteinase; Western blot with rabbit antibodies against recombinant SRPN6Ag only; both purified
# [2] = biological target: Manduca sexta prophenoloxidase-activating proteinase 3 (PAP3), recombinant active form (M. sexta); assay: SDS-stable complex formation (SDS-PAGE and immunoblot); proteinase and rAgSRPN6 mixed at molar ratio 1:10, room temperature 10 min; SDS reducing sample buffer 95°C 5 min; 10% SDS-PAGE; Western blot with antisera against the proteinase and against AgSRPN6; both purified
binder,measurement,setting,value
"recombinant Anopheles gambiae SRPN6 (rAgSRPN6), full-length, excluding the signal peptide (protein) QWNRYYTQAPQARYTPMVRTAQRVALRHSFETDGTPAPSTVRPRPPAPPTNAPSQLPALTPDNDAKISQLVVDFMMRISRTLPQQQSRTELFSPLSIITVANLLFLGSGGSTHEEFGKVLTPSSMNWKRMHQRYGNVLANLMSPEPIDSRRDQWRRQTCPRDDDYEDGEGGPAPKSQVIRVANGIFYQKDLPMRQQYVMLARSLYGALIQPIDPQASAASTALINRWVSDVTAGKIRNMLEGPLSPSSSVVIANALYFKAKWKTQFEPLVTRDAPFFPDGLDGPSYRVKMMSMSGCLPFYRVRDSLDTTIVGLPYRDDTSTMYLIQPANSSRTAIRRLQATLTGKMLDSWISQMKLQSTMVRLPKMHLRNSVDLLQSFQKLGFNSILSPAKSDLSNMIDSSSSAGPKPYVNQILHKLDLTIDEEGTEGAAATSALVDRIGSQRQFNGNAPFLIYLRHDATGLPLFYGPIFDPR",binding,[1],no binding
same,binding,[2],binds

# Results are given in words; binding and its absence hold for the method and conditions named. For some assays here: A result given as binding can be weak or reduced; the word gives no strength.
